Experimental data as given in patent US20200392251A1 (University of California, published 2020).

Chains of the proteins cited; added tags and fusions are not shown. A line that says so, or that is headed by a name, gives the form on record, which may keep a tag or linker.
UniProt P39900, other isoform, or with tags, fused parts or gaps limits assumed: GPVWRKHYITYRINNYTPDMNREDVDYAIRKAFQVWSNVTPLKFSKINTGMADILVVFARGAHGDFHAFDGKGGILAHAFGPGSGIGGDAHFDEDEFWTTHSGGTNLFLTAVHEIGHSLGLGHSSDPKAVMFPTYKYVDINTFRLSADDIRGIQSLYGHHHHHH

Molecular target: T1, human MMP-12 catalytic domain wild type (cdMMP-12 wt) (human, UniProt P39900 106-263)
T1 construct: biotinylated for ELISA/BLI; also called wt cdMMP-12; cdMMP-12 wide-type
Assay: BLItz bio-layer interferometry; printed as 'Affinity ... (nM)'

Kd: 480 nM
B1: N-terminal domain of tissue inhibitor of metalloproteinases 1 (nTIMP-1) (other, UniProt P01033 24-149, looked up)
chain: CTCVPPHPQTAFCNSDLVIRAKFVGTPEVNQTTLYQRYEIKMTKMYKGFQALGDAADIRFVYTPAMESVCGYFHRSHNRSEEFLIAGKLQDGLLHITTCSFVAPWNSLSLAQRRGFTKTYTVGCEE
notes: domain: N-terminal domain; Periplasmically expressed and purified as reported elsewhere
